Results taken from the supplement of paper PMC12889115.
This is one part of the list. Values are raw readings; no control value is given beside them.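 First-pass screen: polymyxin B was added at a level that permeabilizes the Salmonella outer membrane while sparing the inner membrane. DMSO wells, with and without polymyxin B, defined maximum growth. Because plates differed from one another, each plate's data were ranked separately and the compounds with the lowest OD600 were carried forward as hits.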

Tested on: Salmonella enterica serovar Typhimurium SL1344
Assay: bacterial growth OD600 after 18 h with compound and polymyxin B; higher = more bacterial growth (less inhibition)
Settings: 50 µM, Mueller-Hinton broth

SMILES	bacterial growth OD600 (polymyxin B 0.75 µg/mL)	bacterial growth OD600 (polymyxin B 1 µg/mL)
CN1CCN([C@@H]2CCN(Cc3ccc(Oc4ncccn4)cc3)C[C@H]2O)CC1	0.82	
CCOCCCNC(=O)C1CCC(=O)N(CCc2ccc(OC)cc2)C1 (stereo unspecified)		0.848
CCOC(=O)C1(CCCc2ccccc2)CCN(C(=O)CCSC)CC1		0.102
CCc1nc(C)c(C(=O)NCc2cccnc2N(CC)CC)o1		0.942
COc1ccc(/C=C/C(=O)N2CCCC(CNC(=O)c3ccco3)C2)cc1 (stereo unspecified)		0.887
COCCN(C)Cc1cnc(S(=O)(=O)Cc2ccccc2)n1CC(C)C		1.09
OCCN(Cc1nc(-c2ccc3c(c2)OCO3)no1)Cc1cccs1		0.993
CN(CCc1ccccn1)c1ncccc1CNC(=O)c1ccoc1		1.03
CCOC(=O)C1(CCCc2ccccc2)CCN(C(=O)c2ccoc2C)CC1		0.036
O=C(NC1CCOC1)c1cc(Cl)ccc1OC1CCN(C2CCCC2)CC1 (stereo unspecified)	0.779	
O=C(C1CCOCC1)N1CCCC(CCc2ccccc2)C1 (stereo unspecified)	0.739	
COC(C(=O)Nc1ccnn1C1CCN(C(=O)CCC(F)(F)F)CC1)c1ccccc1 (stereo unspecified)		0.894
OC1CCN([C@@H]2CCN(Cc3cnn(-c4ccc(F)cc4)c3)C[C@H]2O)CC1		1.09
Cc1nc(CN2CC[C@@H](N3CCN(CCc4ccccc4)CC3)[C@H](O)C2)c[nH]1		1.02
O=C(c1ccc(-c2ccccc2)c(F)c1)C1CCCN(C(=O)CCC(F)(F)F)C1 (stereo unspecified)		0.801
CC(C)NC(=O)NCc1cccnc1Oc1cccc(C(F)(F)F)c1	0.124	
COc1ccc(OC)c(C2CCN(C(=O)c3cn(CCN4CCCCC4)nn3)C2)c1 (stereo unspecified)		1.08
Cc1oc(-c2ccccc2NC(=O)C2CCC2)nc1CNC(=O)C(C)Oc1cccc(Cl)c1 (stereo unspecified)	0.006	
COCc1ccc(C(=O)NC(C)c2cnn(-c3ccccc3C)c2C)o1 (stereo unspecified)		0.765
COc1cc(CNC(=O)CCN2Cc3cc(Cl)ccc3OC(C)C2)cc(OC)c1OC (stereo unspecified)	0.837	
O=C(NCc1ccc(F)cc1)c1ccc(OC2CCN(C(=O)C3CC3)CC2)cc1		1.01

Six consecutive entries from above:
SMILES	bacterial growth OD600 (polymyxin B 0.75 µg/mL)	bacterial growth OD600 (polymyxin B 1 µg/mL)
COc1ccc(/C=C/C(=O)N2CCCC(CNC(=O)c3ccco3)C2)cc1 (stereo unspecified)		0.887
COCCN(C)Cc1cnc(S(=O)(=O)Cc2ccccc2)n1CC(C)C		1.09
OCCN(Cc1nc(-c2ccc3c(c2)OCO3)no1)Cc1cccs1		0.993
CN(CCc1ccccn1)c1ncccc1CNC(=O)c1ccoc1		1.03
CCOC(=O)C1(CCCc2ccccc2)CCN(C(=O)c2ccoc2C)CC1		0.036
O=C(NC1CCOC1)c1cc(Cl)ccc1OC1CCN(C2CCCC2)CC1 (stereo unspecified)	0.779	
